This list was built around the results that the source calls inconclusive (neither active nor inactive); the mix of calls is not that of the screen. For some of these results: Potencies of inconclusive entries are doubtful fits and often do not repeat. The source made the active and inactive calls. Unless noted, calls follow the shape of the dose curve; as a rule, active = well fitted curve in the direction sought with a large enough effect; inconclusive = small, poorly fitted or top-dose-only effect, or another doubt; inactive = no such curve, though single readings can be large; an effect the other way counts as inactive or inconclusive.
Legend:
[1] = Quantitative High-Throughput drug screen in 47 multiple myeloma cell lines against the NCATS MIPE library collection: KMS20_JCRB cell viability assay (AID 1918973); settings: CellTiter-Glo ATP, 48 h; viability (% of DMSO): at 45.8 µM (top of the series); also: potency is read from the fitted curve at half-maximal effect; nearly all actives have a fitted effect of over 45% in size
Outline: (§1)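 Steps: seed 500 cells per well; pin-transfer MIPE 4.0 library; incubate 48 h at 37C, 5% CO2, humidified; add CellTiter-Glo, 5 min room temperature; read luminescence.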

The chains behind the UniProt entries cited, without tags or fusion partners.
UniProt P36969, whole entry, looked up: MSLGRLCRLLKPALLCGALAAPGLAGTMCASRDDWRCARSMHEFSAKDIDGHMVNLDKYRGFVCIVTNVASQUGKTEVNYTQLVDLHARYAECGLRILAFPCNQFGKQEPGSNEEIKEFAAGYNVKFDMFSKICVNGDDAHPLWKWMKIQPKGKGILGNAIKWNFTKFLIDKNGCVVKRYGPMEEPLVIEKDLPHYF

[2] = Quantitative High-Throughput drug screen in 47 multiple myeloma cell lines against the NCATS MIPE library collection: KMS21BM_JCRB cell viability assay (AID 1918974); settings: ATP luminescence, 48 h; viability: at 45.8 µM (top of the series); also: potency is read from the fitted curve at half-maximal effect
Outline: as §1

[3] = Quantitative High-Throughput drug screen in 47 multiple myeloma cell lines against the NCATS MIPE library collection: NCIH929_DSMZ cell viability assay (AID 1918978); settings: NCI-H929 myeloma viability, CellTiter-Glo ATP, 48 h; viability, % of control: at 45.8 µM (top of the series); also: potency is read from the fitted curve at half-maximal effect; nearly all actives have a fitted effect of over 35% in size
Outline: (§2)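 500 cells/well; MIPE 4.0 drugs pin-transferred; 48 h, 37C, 5% CO2. CellTiter-Glo, 5 min RT, luminescence. Controls: DMSO 100%, media 0%.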

[4] = Quantitative High-Throughput drug screen in 47 multiple myeloma cell lines against the NCATS MIPE library collection: OCIMY1_PLB cell viability assay (AID 1918979); also: potency is read from the fitted curve at half-maximal effect; nearly all actives have a fitted effect of over 35% in size
Outline: as §2

[5] = Quantitative High-Throughput drug screen in 47 multiple myeloma cell lines against the NCATS MIPE library collection: MM1S_ATCC cell viability assay (AID 1918980); also: potency is read from the fitted curve at half-maximal effect; nearly all actives have a fitted effect of over 45% in size
Outline: as §2

[6] = Quantitative High-Throughput drug screen in 47 multiple myeloma cell lines against the NCATS MIPE library collection: LP1_DSMZ cell viability assay (AID 1918982); also: potency is read from the fitted curve at half-maximal effect; nearly all actives have a fitted effect of over 35% in size
Outline: as §2

[7] = Quantitative High-Throughput drug screen in 47 multiple myeloma cell lines against the NCATS MIPE library collection: KMS28PE_JCRB cell viability assay (AID 1918983); also: potency is read from the fitted curve at half-maximal effect; nearly all actives have a fitted effect of over 35% in size
Outline: as §2

[8] = Quantitative High-Throughput drug screen in 47 multiple myeloma cell lines against the NCATS MIPE library collection: L363_DSMZ cell viability assay (AID 1918984); settings: L363 myeloma viability, CellTiter-Glo ATP luminescence, 48 h; viability (% of control): at 45.8 µM (top of the series); also: potency is read from the fitted curve at half-maximal effect; nearly all actives have a fitted effect of over 40% in size
Outline: as §2

[9] = Quantitative High-Throughput drug screen in 47 multiple myeloma cell lines against the NCATS MIPE library collection: SKMM1_PLB cell viability assay (AID 1919863); settings: SKMM1 myeloma viability, CellTiter-Glo ATP, 48 h; viability: hits give low values
Outline: as §2

[10] = Quantitative High-Throughput drug screen in 47 multiple myeloma cell lines against the NCATS MIPE library collection: XG6_PLB cell viability assay (AID 1919865); settings: XG6 myeloma viability, CellTiter-Glo ATP luminescence, 48 h; viability (% of control): at 45.8 µM (top of the series); also: potency is read from the fitted curve at half-maximal effect; nearly all actives have a fitted effect of over 40% in size
Outline: as §2

[11] = Quantitative High-Throughput drug screen in 47 multiple myeloma cell lines against the NCATS MIPE library collection: UTMC2_PLB cell viability assay (AID 1919868); settings: CellTiter-Glo ATP luminescence, 48 h; viability (% of DMSO control): at 45.8 µM (top of the series); also: potency is read from the fitted curve at half-maximal effect; nearly all actives have a fitted effect of over 55% in size
Outline: as §2

[12] = Quantitative High-Throughput drug screen in 47 multiple myeloma cell lines against the NCATS MIPE library collection: PE2_PLB cell viability assay (AID 1919869)
Outline: as §2

[13] = Quantitative High-Throughput drug screen in 47 multiple myeloma cell lines against the NCATS MIPE library collection: RPMI8226_ATCC cell viability assay (AID 1919871); also: potency is read from the fitted curve at half-maximal effect; nearly all actives have a fitted effect of over 30% in size
Outline: as §2

[14] = Quantitative High-Throughput drug screen in 47 multiple myeloma cell lines against the NCATS MIPE library collection: OPM2_DSMZ cell viability assay (AID 1919872); also: potency is read from the fitted curve at half-maximal effect; nearly all actives have a fitted effect of over 30% in size
Outline: as §1

[15] = Quantitative High-Throughput drug screen in 47 multiple myeloma cell lines against the NCATS MIPE library collection: KMS11_JCRBsus cell viability assay (AID 1919873); also: potency is read from the fitted curve at half-maximal effect; nearly all actives have a fitted effect of over 50% in size
Outline: as §2

[16] = Quantitative High-Throughput drug screen in 47 multiple myeloma cell lines against the NCATS MIPE library collection: KMS28BM_JCRB cell viability assay (AID 1919874)
Outline: as §2

[17] = qHTS for identification of novel therapeutic agents for treatment of microphthalmiaassociated transcription factor (MiT) renal cell carcinoma (RCC) (AID 1963991; calls by dose curve; also: potency is read from the fitted curve at half-maximal effect); settings: TFE3-RCC UOK109 viability, CellTiter-Glo, 48 h; active = Z-AUC below -0.8 in all three lines
Outline: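 Curves over 11 concentrations were fitted to CellTiter-Glo luminescence, scaled between empty wells (0%) and DMSO (100%) viability. Cells were UOK109, UOK124 and UOK145 TFE3-fusion RCC lines at 500/well, exposed 48 hours at 37 C.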

HaCat = test: Cytotoxic Profiling of Annotated Libraries Using Quantitative High-Throughput Screening (AID 1296008); settings: Five cell lines viability, CellTiter-Glo ATP luminescence, 48-72 h; max response: hits give low values; also: nearly all actives have a fitted effect of over 60% in size; also: potency is read from the fitted curve at half-maximal effect
Outline: (§3)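 Cells exposed to compounds for 48 or 72 hr at 37 degrees Celsius. Viability read as ATP-coupled luminescence with CellTiter-Glo after 10 min at room temperature.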

KB-3-1 = test: as above; settings: Five cell lines viability, CellTiter-Glo ATP luminescence, 48-72 h; max response: hits give low values
Outline: as §3

C33A = test: Primary qHTS to identify gynecologic anti-cancer compounds using libraries of approved drugs and bioactive compounds (AID 1345084); settings: Gynecologic cancer cell panel viability, ATPlite luminescence, 48 h; series mostly up to 57.5 µM; also: nearly all actives have a fitted effect of over 55% in size; also: potency is read from the fitted curve at half-maximal effect; as to activity change, negative = cytotoxicity: % is scaled to controls: 0 for no effect and ±100 for the full control effect
Outline: (§4)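 Five-concentration response, 48 h; readout is ATP-driven luciferase luminescence.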

JEG-3 = test: as above; settings: Gynecologic cancer cell panel viability, ATPlite luminescence, 48 h; series mostly up to 57.5 µM
Outline: as §4

PA-1 = test: as above; settings: Gynecologic cancer cell panel viability, ATPlite luminescence, 48 h; series mostly up to 57.5 µM
Outline: as §4

SKOV3 = test: as above; settings: Gynecologic cancer cell panel viability, ATPlite luminescence, 48 h; series mostly up to 57.5 µM
Outline: as §4

Tov112D = test: as above; settings: Gynecologic cancer cell panel viability, ATPlite luminescence, 48 h; series mostly up to 57.5 µM
Outline: as §4

MKL-2 = test: qHTS assay to identify novel small-molecules to repurpose for Merkel cell carcinoma treatment (AID 1296009); settings: MCC and control cell lines, CellTiter-Glo viability, 72 h; activity change, negative = cytotoxicity: at 46 µM (top of the series); also: nearly all actives have a fitted effect of over 60% in size; also: potency is read from the fitted curve at half-maximal effect; as to activity change, negative = cytotoxicity: % is scaled to controls: 0 for no effect and ±100 for the full control effect
Outline: (§5)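 CellTiter-Glo luminescence after 72 hr compound exposure at 37 degree celsius gave cell viability. Libraries NPC and MIPE were run as 8- and 11-point dose responses; RLUs normalized to DMSO (negative) and no-cell (cytotoxicity) controls.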

UISO = test: as above; settings: MCC and control cell lines, CellTiter-Glo viability, 72 h; activity change, negative = cytotoxicity: at 46 µM (top of the series)
Outline: as §5

[18] = P-glycoprotein substrates identified in KB-8-5-11 adenocarcinoma cell line, qHTS therapeutic library screen (AID 1346987); also: potency is read from the fitted curve at half-maximal effect; nearly all actives have a fitted effect of over 65% in size
Outline: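 Human cervical adenocarcinoma KB-8-5-11 cells, selected in colchicine to over-express P-gp and assayed without it, were exposed for 72 h to titrated compounds. An ATP-based luminescent viability signal gave AC50.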

[19] = Primary qHTS for inhibitors of nuclear receptor binding SET domain protein 2 (NSD2) in an RCH-ACV wild type WT cells (2C) (AID 1645877); settings: activity change, negative = cell killing: at 44.9 µM (top of the series) unless noted; also: potency is read from the fitted curve at half-maximal effect; nearly all actives have a fitted effect of over 70% in size
[20] = target: Phospholipid hydroperoxide glutathione peroxidase GPX4 (Homo sapiens) (UniProt P36969); test: Primary qHTS Assay for Inhibitors of Recombinant Selenoprotein Glutathione Peroxidase 4 (GPX4) (AID 1845192); also: % is scaled to controls: 0 for no effect and ±100 for the full control effect; nearly all actives have a fitted effect of over 65% in size
Outline: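 Steps: GPX4 plus compound, 30 min RT; add GR/GSH/NADPH master mix; start with cumene hydroperoxide; read 340/450 nm fluorescence at 0 and 15 min. Finals were 200 nM GPX4, 1 mM GSH, 0.5 mM CHP, 0.5 mM NADPH, 100 nM GR.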

NIH3T3 = test: Cytotoxic Profiling of Annotated Libraries Using Quantitative High-Throughput Screening (AID 1296008); settings: Five cell lines viability, CellTiter-Glo ATP luminescence, 48-72 h; max response: hits give low values; also: nearly all actives have a fitted effect of over 60% in size; also: potency is read from the fitted curve at half-maximal effect
Outline: as §3

CAOV3 = test: Primary qHTS to identify gynecologic anti-cancer compounds using libraries of approved drugs and bioactive compounds (AID 1345084); settings: Gynecologic cancer cell panel viability, ATPlite luminescence, 48 h; activity change, negative = cytotoxicity: at 57.5 µM (top of the series); also: nearly all actives have a fitted effect of over 55% in size; also: potency is read from the fitted curve at half-maximal effect; as to activity change, negative = cytotoxicity: % is scaled to controls: 0 for no effect and ±100 for the full control effect
Outline: as §4

Hek293T = test: as above; settings: Gynecologic cancer cell panel viability, ATPlite luminescence, 48 h, control line for the selectivity index; activity change, negative = cytotoxicity: at 57.5 µM (top of the series) unless noted
Outline: as §4

[21] = Primary redox qHTS assay for identification of artifact compounds. (AID 1845223); settings: Amplex Red/HRP redox cycling with DTT, fluorescence; redox activity (% of DA3003): at 53.8 µM (top of the series);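 also: 0% = DMSO and 100% = reference compound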
Outline: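 Redox-cycling detection via DTT (250 uM final) oxidation coupled to Amplex Red (25 uM)/HRP (250 mU/mL) in HBSS. 15 min preincubation plus 30 min after DTT, room temperature. Ex/Em 525/598 nm; 4-parameter Hill fit against DMSO and 10 uM DA3003.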

[22] = Primary fluorescence-based thiol-reactive (MSTI) qHTS assay for identification of artifact compounds. (AID 1845221); also: potency is read from the fitted curve at half-maximal effect; nearly all actives have a fitted effect of over 65% in size
Outline: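 In PBS pH 7.4 with 2% DMSO, each compound met 4 uM MSTI for one hour at ambient temperature, shielded from light, before fluorescence detection.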

[23] = system: Zika virus NS2B-NS3 protease (unlinked complex); test: Primary screen GU Rhodamine qHTS for Zika virus inhibitors: Unlinked NS2B-NS3 protease assay (AID 1347159); also: potency is read from the fitted curve at half-maximal effect; nearly all actives have a fitted effect of over 60% in size
Outline: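 Percent inhibition came from the 15-min rise in Rhodamine110 fluorescence (1.5 microM substrate, ~15% conversion), normalized to no-inhibitor and no-enzyme wells and Hill-fitted. Unlinked protease, 25 nM, pH 8.0 Tris buffer; compounds up to 114 microM, 15-min preincubation.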

[24] = system: Zika virus NS2B-NS3 protease (linked construct); test: Primary screen NINDS Rhodamine qHTS for Zika virus inhibitors (AID 1347160); settings: activity change, negative = inhibition: at 57.1 µM (top of the series) unless noted
Outline: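 Rhodamine110-peptide cleavage (1.5 µM substrate) by 25 nM linked NS2B-NS3 enzyme at pH 8.0 (Tris, Tween 20), after 15 min RT preincubation with compounds; 15-min fluorescence change normalized to controls and Hill-fitted.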

Es-2 = test: Primary qHTS to identify gynecologic anti-cancer compounds using libraries of approved drugs and bioactive compounds (AID 1345084); settings: Gynecologic cancer cell panel viability, ATPlite luminescence, 48 h; series mostly up to 57.5 µM; also: nearly all actives have a fitted effect of over 55% in size; also: potency is read from the fitted curve at half-maximal effect; as to activity change, negative = cytotoxicity: % is scaled to controls: 0 for no effect and ±100 for the full control effect
Outline: as §4

Cc1coc2c1C(=O)C(=O)c1c-2ccc2c(C)cccc12
Potency [1]: inconclusive: 5.26 µM [cytotoxic, partial curve, poor fit]
Potency [2]: inconclusive: 9.35 µM [rising, partial curve, poor fit]
Potency [3]: inconclusive: 11.8 µM [cytotoxic, partial curve]
Potency [4]: inconclusive: 37.2 µM [cytotoxic, single point]
Potency [5]: inconclusive: 18.7 µM [cytotoxic, partial curve, poor fit]
Potency [6]: inconclusive: 16.6 µM [cytotoxic, partial curve, poor fit]
Potency [7]: active: 8.33 µM
Potency [8]: inconclusive: 5.9 µM [cytotoxic, partial curve, poor fit]
Potency [9]: active: 14.8 µM
Potency [10]: inconclusive: 8.33 µM [cytotoxic, partial curve]
Potency [11]: inconclusive: 4.69 µM [cytotoxic, full curve, poor fit]
Potency [12]: inconclusive: 11.8 µM [cytotoxic, partial curve]
Potency [13]: inconclusive: 5.9 µM [cytotoxic, partial curve, poor fit]
Potency [14]: inconclusive: 29.6 µM [cytotoxic, single point]
Potency [15]: inconclusive: 20.9 µM [cytotoxic, partial curve, poor fit]
Potency [16]: inconclusive: 16.6 µM [cytotoxic, partial curve, poor fit]
Potency [17]: inconclusive: 16.6 µM
Potency (HaCat): inconclusive: 18.4 µM [inhibitor, single point]
Potency (KB-3-1): inconclusive: 29.1 µM [inhibitor, single point]
Potency (C33A): inconclusive: 31.6 µM [cytotoxic, single point]
Potency (JEG-3): inconclusive: 31.6 µM [cytotoxic, single point]
Potency (PA-1): inconclusive: 39.8 µM [cytotoxic, single point]
Potency (SKOV3): inconclusive: 39.8 µM [cytotoxic, single point]
Potency (Tov112D): inconclusive: 31.6 µM [cytotoxic, single point]
Potency (MKL-2): inactive
Potency (UISO): inconclusive: 33.2 µM [inhibitor, partial curve, poor fit]

N#Cc1ccc2ncnc(NCCc3ccccc3)c2c1
Potency [18]: inconclusive: 18.4 µM [inhibitor, partial curve]
Potency [19]: active: 4.09 µM
Potency [20]: inactive
Potency (HaCat): inconclusive: 8.2 µM [inhibitor, partial curve]
Potency (KB-3-1): inconclusive: 16.4 µM [inhibitor, single point]
Potency (NIH3T3): inconclusive: 14.6 µM [inhibitor, partial curve, poor fit]
Potency (CAOV3): inactive
Potency (Hek293T): inconclusive: 31.6 µM [cytotoxic, single point]

CN(C)CCOC(C)(c1ccccc1)c1ccc(Cl)cc1 (stereo not given)
Potency [18]: active: 16.4 µM
Potency [19]: active: 10.3 µM
Potency [21]: inactive
Potency (HaCat): inconclusive: 25.9 µM [inhibitor, single point]
Potency (KB-3-1): inconclusive: 29.1 µM [inhibitor, single point]
Potency (NIH3T3): inconclusive: 18.4 µM [inhibitor, single point]
Potency (CAOV3): inactive
Potency (PA-1): inactive
Potency (SKOV3): inconclusive: 39.8 µM [rising, single point]

CC1=C(C(=O)O)/C(=C\CO[C@@H]2O[C@H](CO)[C@@H](O)[C@H](O)[C@H]2O)C(OC(=O)/C=C\c2ccc(O)cc2)C1 (stereo not given in full)
Potency [22]: active: 4.62 µM
Potency (HaCat): inconclusive: 14.2 µM [inhibitor, single point]
outcome (KB-3-1): inactive
max response (NIH3T3): inactive: -21.6%

C=C1OC2CC(C(=O)O)C=CC2NC1=O (stereo not given)
Potency [23]: inconclusive: 50.1 µM [inhibitor, partial curve]
Potency [24]: inconclusive: 17.8 µM [inhibitor, partial curve]
Potency [22]: inconclusive: 8.44 µM [inhibitor, partial curve, poor fit]
Potency (HaCat): inconclusive: 2.31 µM [inhibitor, partial curve, poor fit]
max response (KB-3-1): inactive: 3.04%
max response (NIH3T3): inactive: 0.0418%
Potency (Es-2): inactive
Potency (JEG-3): inactive

— PubChem BioAssay (NCATS)
